# US20120046246A1, “METHODS FOR TREATING OSTEOCLAST-RELATED DISEASE, COMPOUNDS AND COMPOSITIONS THEREOF” (University of Florida Research Foundation, priority 2008, published 2012)
# By UniProt entry, the sequences of proteins in these tests, tags left out.
# UniProt P21281, whole entry: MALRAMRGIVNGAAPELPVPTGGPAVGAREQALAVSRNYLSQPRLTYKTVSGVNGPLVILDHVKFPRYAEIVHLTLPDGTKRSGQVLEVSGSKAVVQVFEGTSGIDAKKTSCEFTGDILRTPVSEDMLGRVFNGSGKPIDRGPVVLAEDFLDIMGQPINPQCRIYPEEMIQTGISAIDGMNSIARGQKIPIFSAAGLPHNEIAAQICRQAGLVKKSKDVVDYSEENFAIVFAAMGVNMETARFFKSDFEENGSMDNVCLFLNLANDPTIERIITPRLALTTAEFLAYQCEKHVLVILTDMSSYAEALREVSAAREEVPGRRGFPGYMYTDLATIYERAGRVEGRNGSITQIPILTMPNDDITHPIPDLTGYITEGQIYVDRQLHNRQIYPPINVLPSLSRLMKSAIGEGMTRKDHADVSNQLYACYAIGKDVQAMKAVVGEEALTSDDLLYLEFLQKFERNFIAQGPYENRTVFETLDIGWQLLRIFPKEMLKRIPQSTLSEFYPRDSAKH
# Some results were stated once for a whole list of compounds, not compound by compound.
# Biological target: T1, interaction between recombinantly-expressed B2 subunit and pure rabbit muscle F-actin (Homo sapiens, UniProt P21281)
# T1 construct: made in house
# Test: pelleting assay of B subunit binding to F-actin
# Details: 100 μM
# Experimental: Twenty-one small molecules are tested for their ability to block interaction between recombinantly-expressed B2 subunit and pure rabbit muscle F-actin.
# Recombinant B subunit (1 μM) plus/minus F-actin (2 μM)) plus/minus 100 uM inhibitor compounds were incubated for 10 minutes in 20 mM Tris/HCl (pH 7.5), 100 mM NaCl, 1 mM MgCl2, 0.2 mM CaCl2, 0.5 mM ATP, 0.2 mM DTT, then subjected to ultracentrifugation at 180,000×g for 45 min. Supernatants and pellets were collected in SDS-PAGE sample buffer, separated by SDS-PAGE, stained with Coomassie Blue, and densitometry was performed using a Flurchem 8000 (Alpha Innotech, San Leandro Calif.).
# The percent inhibition was determined by densitometry of SDS-PAGE gels. The raw densitometric number obtained of the recombinant B subunit band that was pelleted with F-actin, but with no compound present, represented 0% inhibition. The amount of the raw densitometric number of the amount of recombinant B subunit that pelleted with no actin present, but with compound, represented 100% inhibition. The amount of recombinant B subunit that pelleted with actin and the compound being tested was placed as a percentage assuming a linear response.
structure (smiles),measurement,value
"O=C(C[N+]12CN3CN(CN(C3)C1)C2)c1ccc(Cl)cc1.[I-] [Binhib 2, 3,5,7-triaza-1-azoniatricyclo[3.3.1.13,7]decane, 1-[2-(4-chlorophenyl)-2-oxoethyl]-iodide]",binding of B subunit to F-actin blocked,greater than 90%
